“And” between values parts separate entries of the source, which are not always exact repeats. Equal entries are not always repeated. The campaign covered roughly 78,000 compounds. About 1,800 (2.3%) were called active. The shares of active, inactive and inconclusive entries below differ from those in the screen. Cut-off read from the data, not from the text of the source: active = inhibition above about 30%; inconclusive = mostly about 10% to 28%; inactive = weaker than that. Some compounds were tested as several samples or in several runs, with calls that do not always agree.
Target: Interleukin-1 receptor-like 1 (Homo sapiens) (UniProt Q01638)
Assay: blocks human ST2 binding to IL-33, primary screen, biochemical, AlphaLISA (AID 1259354)
Conditions: AlphaLISA ST2-Fc/biotin-IL-33 interaction, 1 h; at 17 µM, stronger effect = higher value

By UniProt entry, the sequences of proteins in these tests, tags left out. Where a name states a change or a piece, a line headed by the entry shows the natural chain unless it says otherwise.
UniProt Q01638: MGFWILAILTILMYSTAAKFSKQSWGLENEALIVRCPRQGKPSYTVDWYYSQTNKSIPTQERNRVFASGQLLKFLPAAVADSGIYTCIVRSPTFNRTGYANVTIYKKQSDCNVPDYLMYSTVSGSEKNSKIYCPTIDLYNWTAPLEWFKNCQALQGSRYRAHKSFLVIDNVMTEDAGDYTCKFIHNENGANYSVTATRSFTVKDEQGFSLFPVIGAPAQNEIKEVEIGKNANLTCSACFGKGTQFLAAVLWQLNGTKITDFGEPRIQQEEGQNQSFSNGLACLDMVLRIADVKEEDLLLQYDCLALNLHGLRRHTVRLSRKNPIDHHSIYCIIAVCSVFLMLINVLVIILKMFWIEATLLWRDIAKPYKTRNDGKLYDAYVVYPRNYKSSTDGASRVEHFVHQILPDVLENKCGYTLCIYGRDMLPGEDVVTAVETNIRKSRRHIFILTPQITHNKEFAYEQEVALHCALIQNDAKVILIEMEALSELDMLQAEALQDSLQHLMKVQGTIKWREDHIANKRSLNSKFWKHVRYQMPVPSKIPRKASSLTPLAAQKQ

Compound | inhibition | outcome
Nc1cccc(C(=O)N2N=C(C(F)(F)F)CC2(O)c2ccc(F)cc2)c1 (centres undefined) | inconclusive: 15% | –
O=C(CSc1c2c(nc3cc(Cl)ccc13)CCCC2)N1CCC2(CC1)OCCO2 | inconclusive: 20% | –
COc1ccc2cc3cc(C(=O)N4CC(C)CC(C)C4)oc3nc2c1 (centres undefined) | inconclusive: 13% and inconclusive: 10% | –
CCN(c1ccc(C)c(C)c1)S(=O)(=O)c1cccc2nsnc12 | inconclusive: 25% and inconclusive: 20% | –
O=C(Nc1cccnc1)C1CCN(c2ccc(-c3cccs3)nn2)CC1 | inconclusive: 18% | –
COc1ccc2cc3cc(C(=O)NCCCN4CCCC4)oc3nc2c1 | active: 33% | inactive
Cc1nc(NCCc2ccccc2)c2c3c(sc2n1)CCC3 | inconclusive: 17% | –
O=C(NC(Nc1ccc(Br)cc1)C(=O)c1ccccc1)c1ccccc1 (centres undefined) | inconclusive: 11% | –
O=C(Nc1ccccc1[N+](=O)[O-])c1cccc(S(=O)(=O)Nc2ccccc2)c1 | inconclusive: 13% | –
CC(C)N(C(=O)c1ccc(C(=O)NCc2ccccc2)cc1)C(C)C | inactive | –
COCCN1CCCC2(CCN(Cc3cc4ccccc4o3)C2)C1=O (centres undefined) | inactive | –
c1ccc(CCc2noc(CN3CCOCC3)n2)cc1 | inactive | –
CCc1ccc(-c2nc(CSCC(=O)NC3CCCC3)c(C)o2)cc1 | inactive | –
Cc1ccc(N2NC(=O)/C(=C/c3cccc(Br)c3)C2=O)cc1 | inconclusive: 21% | –
O=C(CCn1cnnc1)N1C[C@@H]2[C@@H]3CC[C@@H](C3)[C@@H]2C1 | inactive | –
O=C(c1cccs1)N1CCN=C1SCc1ccc(Br)cc1 | inactive | –
COc1ccccc1-c1cccc(C(=O)N2CCCC(O)(CO)CC2)c1 (centres undefined) | inactive | –
COc1ccccc1N(CN1C(=O)c2ccc(Br)cc2C1=O)C(C)=O | inconclusive: 16% | –
O=C(CCc1ccncc1)N1CCC2(CCCN(Cc3ccc(F)c(F)c3)C2)C1 (centres undefined) | inconclusive: 12% | –
O=c1oc2cc(OCCc3ccccc3)ccc2c2c1CCC2 | inconclusive: 10% | –
CCOc1ccc2nc(N3CCCC3C(=O)NCCCn3cccn3)nc(C)c2c1 (centres undefined) | inconclusive: 11% | –
C=CCN(Cc1ccc(F)cc1)C(=O)COC(C)C | inconclusive: 11% | –
CC(=O)Nc1ccc2oc(-c3ccc(Cl)cc3)nc2c1 | inactive | –
CN(C)C[C@H]1O[C@@H](CO)[C@@H](O)[C@H]1N1CCN(C)CC1 | inconclusive: 18% | –

Compound | inhibition | outcome
Cc1ccc(C)c(CN2CCN(c3ccccn3)CC2)c1 | inconclusive: 10% | –
CCCCn1c(CCC)nc2c(=O)n(C)c(=O)[nH]c21 | inactive | –
Cc1cccc(C2=N/C(=C\c3cccc(I)c3)C(=O)O2)c1 | inconclusive: 11% | –
Cc1ccc(-c2nc3cnccn3c2NC2CCCCC2)o1 | inactive | –
c1ccc(CN2CC[C@H](c3nnc(-c4cccnc4)o3)C2)nc1 | inactive | –
Cc1ccc(OCC(=O)Nc2nnc(C(C)C)s2)c(Br)c1 | inconclusive: 13% | –
COC(=O)[C@H](Cc1ccc(OC)cc1)NC(=O)[C@@H]1CNCCN1S(=O)(=O)c1ccccc1 | inconclusive: 12% | –
CCCn1c(C)c(CC(=O)NC(C)Cn2cccn2)c2c1CC(C)(C)CC2=O (centres undefined) | inconclusive: 14% | –
Nc1cc(-c2ccc(CN3CCCC3)cc2)c2cc[nH]c2n1 | inactive | –
COc1ccc(OCC(=O)Nc2c(C(=O)Nc3cccc(OC)c3)oc3ccccc23)cc1 | inactive | –
COc1ccc(-n2ncc3c2CC(C)(C)CC3NC(=O)Cn2cc3ccccc3n2)cc1 (centres undefined) | inactive | –
COc1ccc(C2CC(c3cccs3)=NN2S(=O)(=O)c2ccc(C)cc2)cc1 (centres undefined) | active: 32% and inconclusive: 21% | –
COc1ccc(N2COc3ccc4c5c(c(=O)oc4c3C2)CCC5)cc1 | inconclusive: 14% | –
N[C@@H]1CC[C@@H](NC(=O)c2cccc(-n3cnnc3)n2)C1 | inconclusive: 19% | –
COCCC(=O)N[C@H]1CC[C@]2(C)CCC([C@H](C)C(=O)N3CCC[C@@H]3COC)[C@H](O)[C@H]2[C@@H]1C (some centres undefined) | inconclusive: 10% | –
Cn1c(=O)c2c(SCc3cccnc3)nc(-c3ccc(F)cc3)nc2n(C)c1=O | inactive | –
COC(=O)C1C(=O)C2=C(CC1C)NC(C)=C(C(=O)OC(C)C)C2c1cccc(Br)c1 (centres undefined) | inconclusive: 10% | –
COc1ccc(CNC(=O)C[C@@H]2CCNC[C@@H]2Cc2cc(-c3ccc(C(C)(C)C)cc3)on2)cc1 | active: 47% | –
Cc1cccn2c(CC(=O)N3CCNCC3C(=O)N3CCOCC3)cnc12 (centres undefined) | inconclusive: 20% | –
COc1ccc2cc3cc(C(=O)Nc4cc(C)c(Cl)cc4OC)oc3nc2c1 | inconclusive: 11% | –
COc1ccc(CCNC(=O)C(=O)NC2CC2)cc1 | inactive | –
O=C(Nc1ccc(-c2nc3ncccc3o2)cc1)c1ccc(-c2cccc([N+](=O)[O-])c2)o1 | inconclusive: 19% | –
N#CC1=C(N)C(C#N)(C#N)C(c2cccc(Oc3ccccc3)c2)C2CCCC=C12 (centres undefined) | inconclusive: 26% | –
N#C/C(=C/C=C/c1ccccc1)c1nc(-c2cccs2)cs1 | active: 60% | –

Compound | inhibition | outcome
O=C1CSC(c2cccnc2)N1c1cccc(F)c1 (centres undefined) | inactive | –
CCC(Oc1ccccc1)C(=O)Nc1cc(C)ccc1OCc1cc(=O)n2oc(C)cc2n1 (centres undefined) | inactive | –
O=C(Nc1ccc(Cl)cc1)Nc1ccc(=O)n2c1[C@@H]1C[C@@H](CN(C(=O)c3ccc(F)cc3)C1)C2 | inactive | –
CC1=C(C(=O)Nc2ccc(F)cc2)C(c2ccsc2)C2=C(CCCC2=O)N1 (centres undefined) | inconclusive: 15% | –
Cc1cc(C)nc(NS(=O)(=O)c2ccc(NC(=O)c3ccoc3C)cc2)n1 | inactive | –
COc1ccc(CCNC(=O)CN2CCCC3(CNC(=O)O3)C2)cc1 (centres undefined) | inconclusive: 10% | –
COc1cc2c(C(=O)NC3CCCC(C)C3C)cn(C)c(=O)c2cc1OC (centres undefined) | inconclusive: 10% | –
CC(=O)N1N=C(c2cccs2)CC1c1cn(-c2ccccc2)nc1-c1ccccc1 (centres undefined) | inactive | –
Cc1cc(NC(=O)CSc2cn(Cc3ccc(Cl)cc3)c3ccccc23)no1 | inactive | –
CCN(CC)C(=O)CCS(=O)(=O)c1cc(Br)cc2c1N(C(C)=O)CC2 | inactive | –
CCN1CCN(c2ncnc3c2cnn3-c2ccc(OC)cc2)CC1 | inactive | –
CCOC(=O)c1c(NC(=O)c2cc(CC(C)C)on2)sc(C)c1C | inconclusive: 11% | –
COC(=O)C1C(=O)C2=C(CC1C)NC(C)=C(C(=O)OC(C)C)C2c1coc2ccc(C)cc2c1=O (centres undefined) | inactive | –
Cc1ccccc1-c1nsc(SCC(=O)Nc2ccc3c(c2)OCCO3)n1 | inactive | –
Cc1ccc(-n2ncc3c(=O)n(-c4ccc(F)c(Cl)c4)c(C)nc32)cc1 | inconclusive: 15% | –
COc1cc(OC)c(C=Nc2ccc(O)cc2)cc1Br | active: 51% | –
CCS(=O)(=O)c1ccc([N+](=O)[O-])s1 | inconclusive: 17% | –
Cn1cnc2c1c(=O)n(Cc1ccccc1)c(=O)n2C | inconclusive: 11% | –
O=C(c1ccncc1)N1N=C(c2cccc(Br)c2)CC1(O)C(F)(F)F (centres undefined) | inactive | –
O=C(Nc1nnc(-c2ccccc2Cl)o1)c1ccc(S(=O)(=O)N2CCCCCC2)cc1 | inconclusive: 12% | –
Cc1cccc(CC2SC(=Nc3ccccc3)NC2=O)c1 (centres undefined) | inconclusive: 23% | –
CCCCN(CC(=O)N1CCCc2c1c(=O)oc1ccc(O)cc21)Cc1ccccc1 | inconclusive: 26% | –
CC(=O)Nc1ccc(N=Cc2ccc([N+](=O)[O-])cc2)cc1 | inconclusive: 17% | –
CCc1ccc(CN(C)C(=O)c2cc(COc3ccc4ncccc4c3)on2)nc1 | inconclusive: 11% | –

By substructure: the entries above containing a cyano group (2)
Compound | inhibition | outcome
N#CC1=C(N)C(C#N)(C#N)C(c2cccc(Oc3ccccc3)c2)C2CCCC=C12 (centres undefined) | inconclusive: 26% | –
N#C/C(=C/C=C/c1ccccc1)c1nc(-c2cccs2)cs1 | active: 60% | –

(further entries)

Compound | inhibition | outcome
CC(Cc1ccc2c(c1)OCO2)CN1CCC(n2nccc2NC(=O)C(C)(C)C)CC1 (centres undefined) | inconclusive: 18% | –
COc1cc(S(=O)(=O)NCCOC23CC4CC(CC(C4)C2)C3)ccc1Cl | inactive | –
COc1c(C)cnc(CN(C)S(=O)(=O)NCc2ccccc2)c1C | inconclusive: 12% | –
Cc1nc2sc(C(c3ccc(Cl)cc3)N3CCC(O)CC3)c(O)n2n1 (centres undefined) | inconclusive: 10% | –
COc1ccc(C(=O)N[C@H]2CO[C@H]3[C@@H]2OC[C@@H]3Nc2nccc(-c3cccs3)n2)cc1 | inconclusive: 15% | –
N#CC1=C(N)OC2=C(C(=O)CCC2)C1c1c[nH]c2ccccc12 (centres undefined) | inconclusive: 21% | –
O=C(c1ccc(-c2ccccc2)cc1)C1CCCN(c2cc(NCCO)ncn2)C1 (centres undefined) | inconclusive: 10% | –
COc1cc(C2=N/C(=C\c3ccccc3)C(=O)O2)cc(OC)c1OC | inconclusive: 24% | –
O=C(CN1CCCCC1)OCCCC1CCCCC1 | inconclusive: 25% | –
COc1ccc(-c2nc(CSCC(=O)N3CCc4ccccc43)c(C)o2)cc1OC | inconclusive: 17% | –
CCOc1ccc(OCCOCCN2CCN(C)CC2)cc1 | inactive | –
CCC(=O)c1ccc(Br)cc1[N+](=O)[O-] | inconclusive: 17% | –
Cc1ccc(C(=O)CSc2nnc(C)s2)cc1 | inconclusive: 15% | –
Fc1ccc(CN2CCN(c3ccccn3)CC2)cc1Br | active: 33% | –
Cc1noc(C)c1S(=O)(=O)N1CCN(c2cc(-c3ccc(F)cc3)ncn2)CC1 | inactive | –
Cc1ccsc1[C@@H]1CCN(C(=O)COc2ccc(F)cc2)C[C@H]1O | inconclusive: 12% | –
NC(=O)CSc1nc2c([nH]c3ccccc32)c(=O)n1-c1ccc(F)cc1 | inactive | –
CC(C)C(NS(=O)(=O)c1cccs1)C(=O)NCCCN1CCCC1 (centres undefined) | inactive | –
CCC(c1ccccc1)c1nc(-c2cccc([N+](=O)[O-])c2)no1 (centres undefined) | active: 30% | –
Cc1cccc(NC(=O)COc2ccc(Cl)cc2Br)n1 | inconclusive: 12% | –
Cc1cc(C)c2c(=O)cc(C3C(=O)c4ccccc4C3=O)[nH]c2c1 | inactive | –

An excerpt taken from the entries so far, as a working copy:
Compound | inhibition | outcome
O=C(Nc1cccnc1)C1CCN(c2ccc(-c3cccs3)nn2)CC1 | inconclusive: 18% | –
COc1ccc2cc3cc(C(=O)NCCCN4CCCC4)oc3nc2c1 | active: 33% | inactive
Cc1nc(NCCc2ccccc2)c2c3c(sc2n1)CCC3 | inconclusive: 17% | –
O=C(NC(Nc1ccc(Br)cc1)C(=O)c1ccccc1)c1ccccc1 (centres undefined) | inconclusive: 11% | –
O=C(Nc1ccccc1[N+](=O)[O-])c1cccc(S(=O)(=O)Nc2ccccc2)c1 | inconclusive: 13% | –
